No constants are given. Whether binding was seen depends on the method and setting. Binding seen in cells or lysates may run through a third protein. Binding calls can cover weak binding; strength is not graded here.
Molecular target: Gm364 (mouse) (UniProt A2AFI6)
Assay: co-IP; 2.5 ug rabbit antibody coupled to protein A/G beads, lysate of 400 mouse oocytes, IP buffer (20 mM Tris-HCl pH 8.0, 10 mM EDTA, 1 mM EGTA, 150 mM NaCl, 0.05% Triton X-100, 0.05% Nonidet P-40), overnight at 4 °C, three washes, SDS-PAGE and western blot; rabbit IgG as control

Chains of the proteins cited; added tags and fusions are not shown. Lines headed by an entry give the natural chain unless they say otherwise; changes in a name come on top.
UniProt A2AFI6: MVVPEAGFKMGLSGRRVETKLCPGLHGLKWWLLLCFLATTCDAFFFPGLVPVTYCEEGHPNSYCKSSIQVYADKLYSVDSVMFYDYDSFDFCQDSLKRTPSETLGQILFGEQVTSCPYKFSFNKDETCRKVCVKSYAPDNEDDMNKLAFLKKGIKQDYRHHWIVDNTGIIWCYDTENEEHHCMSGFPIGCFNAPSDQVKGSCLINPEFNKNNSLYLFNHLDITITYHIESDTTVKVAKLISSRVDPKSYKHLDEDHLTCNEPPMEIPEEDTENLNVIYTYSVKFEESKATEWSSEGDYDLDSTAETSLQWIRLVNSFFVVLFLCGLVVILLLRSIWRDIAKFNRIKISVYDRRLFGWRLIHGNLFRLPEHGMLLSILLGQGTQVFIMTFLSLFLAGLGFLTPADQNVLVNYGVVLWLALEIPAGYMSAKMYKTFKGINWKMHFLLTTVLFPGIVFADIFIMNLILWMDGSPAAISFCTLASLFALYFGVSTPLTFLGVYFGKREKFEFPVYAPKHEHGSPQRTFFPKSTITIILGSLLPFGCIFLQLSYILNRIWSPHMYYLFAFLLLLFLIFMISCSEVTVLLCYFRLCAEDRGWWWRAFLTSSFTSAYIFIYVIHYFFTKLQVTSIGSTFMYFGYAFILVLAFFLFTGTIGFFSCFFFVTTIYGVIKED

binding	Binder
binds	GRAMD1A (protein, UniProt Q8VEF1 1-722) MFDTTPHSGRSSPSSSPSLRKRLQLLPPIRPPPASEPEPGTMVEKGSDSSSEKSGVSGTLSTQSLGSRNFIRNSKKMQSWYSMLCPTYKQRNEDFRKLFSKLPEAERLIVDYSCALQREILLQGRLYLSENWICFYSNIFRWETTISIQLKEVTCLKKEKTAKLIPNAIQICTESEKHFFTSFGARDRCFLLIFRLWQNALLEKTLSPRELWHLVHQCYGSELGLTSEDEDYVCPLQLNGLGSPKEVGDVIALSDISPSGAADHSQEPSPVGSRRGRVTPNLSRASSDADHGAEEDKEEQTDGLDASSSQTVTPVAEPLSSEPTPPDGPTSSLGPLDLLSREELLTDTSNSSSSTGEEGDLAALLPDLSGRLLINSVFHMGAERLQQMLFSDSPFLQGFLQQRKFTDVTLSPWSSDSKCHQRRVLTYTIPISNQLGPKSASVVETQTLFRRGPQAGGCVVDSEVLTQGIPYQDYFYTAHRYCILGLARNKARLRVSSEIRYRKQPWSLVKSLIEKNSWSGIEDYFHHLDRELAKAEKLSLEEGGKDTRGLLSGLRRRKRPLSWRGHRDGPQHPDPDPCTQTSMHTSGSLSSRFSEPSVDQGPGAGIPSALVLISIVLIVLIALNALLFYRLWSLERTAHTFESWHSLALAKGKFPQTATEWAEILALQKHFHSVEVHKWRQILRASVELLDEMKFSLEKLHQGITVPDPPLDTQPQPDDSFP
binds	MIB2 (enzyme, UniProt Q8R516 1-973) MDLDPHAGVQVGMRVVRGMDWKWGQQDGGEGGVGTVVELGRHGSPSTPDRTVVVQWDQGTRTNYRAGYQGAHDLLLYDNAQIGIRHPNIICDCCKKHGLRGMRWKCRVCFDYDLCTQCYMHNKHDLTHAFERYETSHSRPVTLSPRQGLPRIPLRGIFQGAKVVRGPDWEWGSQDGGEGKTGRVVDIRGWDVETGRSVASVTWADGTTNVYRVGHKGKVDLRCVGEAAGGFYYKEHLPKLGKPAELQRRVSADGQPFQRGDKVKCLLDTDVLRDMQEGHGGWNPRMAEFIGQMGTVHRITDRGDVRVQFNHETRWTFHPGALTKHNSFWVGDVVRVIGDLDTVKRLQAGHGEWTDDMAPALGRVGKVVKVFGDGNLRVAVGGQRWTFSPSCLVAYRPEEDANLDVAERARENKSAASVSVAGSLSVALDKLRTQKSDPEHPGRLVVEAALGNVARALDLLRRHPEQASYHPALVVDTKNQGRTALQVAAYLGQVELVRLLLQARASMDLPDDEGNTVLHYTAMGNQPEATRVLLSAGCAVDARNGTRSTALHVAVQRGFLEVVKILCERGCDVNLPDAHADTPLHSAISAGAGASSIVEVLTEVPGIDVTATNSQGFTLLHHASLKGHVLAVRKILARARQLVDAKKEDGFTALHLAALNNHREVAQVLIREGRCDVNVRNRKLQSPLHLAVQQAHLGLVPLLVDAGCSVNTEDEEGDTALHVALQRHQLLPLVADRAGGDPGPLQLLSRLQASGLPGCTELTVGAAVACFLALEGADVSYANHRGRSPLDLATEGRVLKALQGCAQRFRERQAGGGGGVPPGPRHVLSTPNTVTNLHVSGTAGPEAAECLVCSELALLILFSPCQHRTVCEECARRMKKCIRCQVVISKKLRPDGSEVVNAIQVPGPPRQLVEELQSRYRQMEERITCPICIDSHIRLVFQCGHGACAPCGAALNACPICRQPIRDRIQIFV
